Construct, isoform or probe ends are uncertain for at least one entry. Tags and fusion partners may be left off the protein sequences shown.
Biological target: T1, ParA (His6-ParA) (Myxococcus xanthus) (UniProt Q1CVJ3)
T1 sequence (looked up, limits assumed): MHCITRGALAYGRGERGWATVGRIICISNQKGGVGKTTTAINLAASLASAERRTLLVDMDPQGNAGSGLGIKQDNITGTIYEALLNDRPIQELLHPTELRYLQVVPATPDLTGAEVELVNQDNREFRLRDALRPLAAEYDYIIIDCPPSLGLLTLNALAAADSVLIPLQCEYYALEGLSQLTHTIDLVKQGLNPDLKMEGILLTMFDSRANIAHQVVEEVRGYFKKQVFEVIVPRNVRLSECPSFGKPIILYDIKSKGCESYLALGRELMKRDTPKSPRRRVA
Assay: BLI
Conditions: 1 mM ATP, no ParB1-20 peptide; BLI: 25 mM HEPES/KOH pH 7.6, 100 mM KCl (150 or 500 mM where stated), 10 mM MgSO4, 1 mM DTT, 0.01% Tween 20; temperature not stated; recombinant protein; protein details: His6; label: 5'-biotin-TEG on both strands; probe letters rebuilt from the primers and the genome

## TCCGCTTGGCGTGAGTTCCTGACGCTTGGTGGGAAGGATGCGCGTGCTGATGCGTGCACCTCAGTGAAGTGGATGGCGCGGCTGCTCATGCGCGGGTTGCTCAGCGCCTGTTCCACGTGGAACGCGGGATGGATTGATGGTGGGCACGCGCGCAGCGCCGGAGAGTTCGCTGACGGCTCCGCGTTCAGGCTCGTGATGCGCTCATGGTTCATGGAGTGGTGAGTGCTCCACCGG (double strand) [234-bp parS fragment, closed on biosensor]
  Kd: 7.8 µM

— publication PMC12462528, “Molecular basis of ParA ATPase activation by the CTPase ParB during bacterial chromosome segregation” (Nature Communications, 2025)
